Values of other authors, collected in PMC3189208 (PLoS ONE, 2011).

Molecular target: MOR
Settings: cited from earlier work

## COc1cccc(C2(O)CCCCC2CN(C)C)c1 (stereo not shown) [tramadol]
  Ki: 2400 nM
